These are yes or no findings as the source states them, for the method shown. Some entries that bind do so weakly or less than the wild type.
B1: full-length XcpQ secretin (wild type) (protein, UniProt P35818 35-658)
chain: ENSGGNAFVPAGNQQEAHWTINLKDADIREFIDQISEITGETFVVDPRVKGQVSVVSKAQLSLSEVYQLFLSVMSTHGFTVVAQGDQARIVPNAEAKTEAGGGQSAPDRLETRVIQVQQSPVSELIPLIRPLVPQYGHLAAVPSANALIISDRSANIARIEDVIRQLDQKGSHDYSVINLRYGWVMDAAEVLNNAMSRGQAKGAAGAQVIADARTNRLIILGPPQARAKLVQLAQSLDTPTARSANTRVIRLRHNDAKTLAETLGQISEGMKNNGGQGGEQTGGGRPSNILIRADESTNALVLLADPDTVNALEDIVRQLDVPRAQVLVEAAIVEISGDIQDAVGVQWAINKGGMGGTKTNFANTGLSIGTLLQSLESNKAPESIPDGAIVGIGSSSFGALVTALSANTKSNLLSTPSLLTLDNQKAEILVGQNVPFQTGSYTTNSEGSSNPFTTVERKDIGVSLKVTPHINDGAALRLEIEQEISALLPNAQQRNNTDLITSKRSIKSTILAENGQVIVIGGLIQDDVSQAESKVPLLGDIPLLGRLFRSTKDTHTKRNLMVFLRPTVVRDSAGLAALSGKKYSDIRVIDGTRGPEGRPSILPTNANQLFDGQAVDLRELMTE
B2: XcpQ_(N012) (N0, N1 and N2 subdomains of the periplasmic N-terminal domain of the P. aeruginosa XcpQ secretin) (domain or fragment, Pseudomonas aeruginosa)
chain: ENSGGNAFVPAGNQQEAHWTINLKDADIREFIDQISEITGETFVVDPRVKGQVSVVSKAQLSLSEVYQLFLSVMSTHGFTVVAQGDQARIVPNAEAKTEAGGGQSAPDRLETRVIQVQQSPVSELIPLIRPLVPQYGHLAAVPSANALIISDRSANIARIEDVIRQLDQKGSHDYSVINLRYGWVMDAAEVLNNAMSRGQAKGAAGAQVIADARTNRLIILGPPQARAKLVQLAQSLDTPTAR
notes: XcpQ secretin of the Xcp type II secretion system, Pseudomonas aeruginosa; subdomains N0, N1 and N2; 26 kDa; the whole N domain covers residues 51 to 365; Found in solution as dimers (L) and dodecamers (H); also called matured XcpQ_(N012); untagged XcpQ_(N012)

Protein sequences, listed by entry. Tags and fused reporters are not part of them. Residues count along the entry.
UniProt Q51575, residues 56-235: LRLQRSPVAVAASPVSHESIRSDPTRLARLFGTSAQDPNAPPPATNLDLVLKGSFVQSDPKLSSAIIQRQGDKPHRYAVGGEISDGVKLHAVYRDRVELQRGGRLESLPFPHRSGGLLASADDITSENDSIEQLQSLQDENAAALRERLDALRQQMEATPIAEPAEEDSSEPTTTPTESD

What was measured:
[1] = biological target: full-length XcpQ secretin (wild type) (Pseudomonas aeruginosa) (UniProt P35818); assay: immunoblot of samples under nondenaturing and reducing conditions; protein samples from P. aeruginosa strains producing full-length XcpQ or cysteine variants; assembled secretin channels detected
[2] = biological target: soluble XcpP periplasmic domain (XcpPp) (Pseudomonas aeruginosa) (UniProt Q51575); assay: BLI; sensor coupled to CbpD or to XcpPp; XcpQ_(N012) alone or the XcpQ_(N012)-vHH04 complex in solution; both purified

Binder | binding [1] | binding [2]
B1 | binds | 
B2 |  | binds

From article PMC5646246, “Unraveling the Self-Assembly of the Pseudomonas aeruginosa XcpQ Secretin Periplasmic Domain Provides New Molecular Insights into Type II Secretion System Secreton Architecture and Dynamics” (mBio, 2017)
